Laboratory results as given in the supplement of paper PMC12819154, “High-throughput peptide-centric local stability assay extends protein–ligand identification to membrane proteins, tissues and bacteria” (Nature Structural & Molecular Biology, 2025).
The list shows a part of the results. Small differences around the control level are noise.

Sequences of proteins named here, by UniProt entry; tags and fusion partners are left off. A change or cut given only in a name is not applied to a line headed by its entry.
UniProt P21981: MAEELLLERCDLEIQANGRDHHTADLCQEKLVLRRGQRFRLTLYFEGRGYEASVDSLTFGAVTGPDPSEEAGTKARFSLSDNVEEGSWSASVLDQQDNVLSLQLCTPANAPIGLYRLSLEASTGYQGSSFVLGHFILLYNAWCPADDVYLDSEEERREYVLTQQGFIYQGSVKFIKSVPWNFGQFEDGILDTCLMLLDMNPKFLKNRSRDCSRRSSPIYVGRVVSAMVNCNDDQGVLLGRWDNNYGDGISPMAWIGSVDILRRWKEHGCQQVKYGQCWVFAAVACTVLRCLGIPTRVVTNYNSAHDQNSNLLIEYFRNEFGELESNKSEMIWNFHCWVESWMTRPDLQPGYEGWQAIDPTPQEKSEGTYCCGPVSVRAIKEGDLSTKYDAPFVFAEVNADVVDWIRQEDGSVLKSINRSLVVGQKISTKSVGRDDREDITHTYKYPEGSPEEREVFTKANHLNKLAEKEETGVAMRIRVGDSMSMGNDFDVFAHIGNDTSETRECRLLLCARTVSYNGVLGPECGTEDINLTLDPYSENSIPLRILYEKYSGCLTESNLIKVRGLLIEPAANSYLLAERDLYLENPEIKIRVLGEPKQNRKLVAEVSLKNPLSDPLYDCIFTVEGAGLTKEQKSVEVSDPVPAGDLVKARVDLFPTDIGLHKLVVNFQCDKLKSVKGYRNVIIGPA
UniProt P08226: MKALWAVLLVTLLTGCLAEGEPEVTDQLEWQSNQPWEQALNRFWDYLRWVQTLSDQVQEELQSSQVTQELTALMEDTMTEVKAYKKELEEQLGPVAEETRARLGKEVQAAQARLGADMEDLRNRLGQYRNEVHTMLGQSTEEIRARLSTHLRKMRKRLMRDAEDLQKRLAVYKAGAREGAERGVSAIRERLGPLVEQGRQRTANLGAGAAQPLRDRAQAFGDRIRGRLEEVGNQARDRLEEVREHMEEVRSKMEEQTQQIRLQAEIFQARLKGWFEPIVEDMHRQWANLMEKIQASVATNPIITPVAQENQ
UniProt P08249: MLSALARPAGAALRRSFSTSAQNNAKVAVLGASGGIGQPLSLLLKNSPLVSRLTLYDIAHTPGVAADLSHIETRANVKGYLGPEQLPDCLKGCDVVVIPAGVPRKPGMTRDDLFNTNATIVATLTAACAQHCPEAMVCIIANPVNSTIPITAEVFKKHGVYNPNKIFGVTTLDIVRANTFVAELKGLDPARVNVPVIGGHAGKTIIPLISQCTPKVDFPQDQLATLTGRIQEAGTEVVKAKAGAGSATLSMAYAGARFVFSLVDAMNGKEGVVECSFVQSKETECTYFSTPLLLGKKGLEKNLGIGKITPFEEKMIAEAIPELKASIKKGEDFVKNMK
UniProt P12265: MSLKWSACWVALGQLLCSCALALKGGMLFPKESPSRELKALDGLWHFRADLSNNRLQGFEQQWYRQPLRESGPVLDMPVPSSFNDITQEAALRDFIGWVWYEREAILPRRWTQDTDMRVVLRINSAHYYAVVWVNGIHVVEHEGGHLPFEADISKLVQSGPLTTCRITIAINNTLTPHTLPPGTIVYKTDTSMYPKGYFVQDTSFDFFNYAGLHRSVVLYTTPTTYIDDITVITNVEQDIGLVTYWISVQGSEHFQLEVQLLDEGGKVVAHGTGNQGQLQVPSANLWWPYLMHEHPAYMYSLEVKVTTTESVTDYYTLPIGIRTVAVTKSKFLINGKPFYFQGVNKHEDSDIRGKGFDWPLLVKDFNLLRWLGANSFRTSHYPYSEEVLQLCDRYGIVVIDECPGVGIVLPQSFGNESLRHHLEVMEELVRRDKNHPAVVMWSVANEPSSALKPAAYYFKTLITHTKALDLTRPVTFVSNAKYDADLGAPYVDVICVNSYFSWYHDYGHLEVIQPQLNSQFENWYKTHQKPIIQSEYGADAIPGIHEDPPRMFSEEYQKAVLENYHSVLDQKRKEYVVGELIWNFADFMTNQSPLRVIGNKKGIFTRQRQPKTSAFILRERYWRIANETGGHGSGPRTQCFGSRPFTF
UniProt P23589: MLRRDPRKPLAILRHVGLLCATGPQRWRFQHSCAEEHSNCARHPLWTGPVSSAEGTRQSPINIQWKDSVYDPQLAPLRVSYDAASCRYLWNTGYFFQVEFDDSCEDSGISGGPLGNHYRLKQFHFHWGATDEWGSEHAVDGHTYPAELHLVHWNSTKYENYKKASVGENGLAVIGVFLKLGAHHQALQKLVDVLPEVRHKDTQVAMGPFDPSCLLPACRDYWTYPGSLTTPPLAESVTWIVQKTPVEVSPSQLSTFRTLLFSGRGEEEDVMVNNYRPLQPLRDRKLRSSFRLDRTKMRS
UniProt P16301: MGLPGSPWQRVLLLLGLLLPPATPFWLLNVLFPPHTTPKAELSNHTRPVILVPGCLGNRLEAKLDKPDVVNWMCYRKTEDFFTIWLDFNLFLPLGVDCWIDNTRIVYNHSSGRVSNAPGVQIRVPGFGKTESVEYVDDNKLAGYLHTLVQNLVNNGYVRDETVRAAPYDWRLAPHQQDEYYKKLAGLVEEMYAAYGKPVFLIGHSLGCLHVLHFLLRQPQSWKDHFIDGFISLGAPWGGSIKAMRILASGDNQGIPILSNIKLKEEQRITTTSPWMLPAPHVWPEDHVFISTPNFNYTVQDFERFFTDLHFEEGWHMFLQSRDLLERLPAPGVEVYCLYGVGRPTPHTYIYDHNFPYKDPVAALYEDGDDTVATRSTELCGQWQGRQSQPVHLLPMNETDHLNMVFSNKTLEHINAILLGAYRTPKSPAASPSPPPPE
UniProt P17742, whole entry: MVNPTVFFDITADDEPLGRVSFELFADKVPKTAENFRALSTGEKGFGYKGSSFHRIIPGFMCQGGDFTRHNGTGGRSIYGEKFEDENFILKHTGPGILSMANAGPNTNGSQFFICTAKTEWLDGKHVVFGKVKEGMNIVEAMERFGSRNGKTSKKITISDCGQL
UniProt P14873: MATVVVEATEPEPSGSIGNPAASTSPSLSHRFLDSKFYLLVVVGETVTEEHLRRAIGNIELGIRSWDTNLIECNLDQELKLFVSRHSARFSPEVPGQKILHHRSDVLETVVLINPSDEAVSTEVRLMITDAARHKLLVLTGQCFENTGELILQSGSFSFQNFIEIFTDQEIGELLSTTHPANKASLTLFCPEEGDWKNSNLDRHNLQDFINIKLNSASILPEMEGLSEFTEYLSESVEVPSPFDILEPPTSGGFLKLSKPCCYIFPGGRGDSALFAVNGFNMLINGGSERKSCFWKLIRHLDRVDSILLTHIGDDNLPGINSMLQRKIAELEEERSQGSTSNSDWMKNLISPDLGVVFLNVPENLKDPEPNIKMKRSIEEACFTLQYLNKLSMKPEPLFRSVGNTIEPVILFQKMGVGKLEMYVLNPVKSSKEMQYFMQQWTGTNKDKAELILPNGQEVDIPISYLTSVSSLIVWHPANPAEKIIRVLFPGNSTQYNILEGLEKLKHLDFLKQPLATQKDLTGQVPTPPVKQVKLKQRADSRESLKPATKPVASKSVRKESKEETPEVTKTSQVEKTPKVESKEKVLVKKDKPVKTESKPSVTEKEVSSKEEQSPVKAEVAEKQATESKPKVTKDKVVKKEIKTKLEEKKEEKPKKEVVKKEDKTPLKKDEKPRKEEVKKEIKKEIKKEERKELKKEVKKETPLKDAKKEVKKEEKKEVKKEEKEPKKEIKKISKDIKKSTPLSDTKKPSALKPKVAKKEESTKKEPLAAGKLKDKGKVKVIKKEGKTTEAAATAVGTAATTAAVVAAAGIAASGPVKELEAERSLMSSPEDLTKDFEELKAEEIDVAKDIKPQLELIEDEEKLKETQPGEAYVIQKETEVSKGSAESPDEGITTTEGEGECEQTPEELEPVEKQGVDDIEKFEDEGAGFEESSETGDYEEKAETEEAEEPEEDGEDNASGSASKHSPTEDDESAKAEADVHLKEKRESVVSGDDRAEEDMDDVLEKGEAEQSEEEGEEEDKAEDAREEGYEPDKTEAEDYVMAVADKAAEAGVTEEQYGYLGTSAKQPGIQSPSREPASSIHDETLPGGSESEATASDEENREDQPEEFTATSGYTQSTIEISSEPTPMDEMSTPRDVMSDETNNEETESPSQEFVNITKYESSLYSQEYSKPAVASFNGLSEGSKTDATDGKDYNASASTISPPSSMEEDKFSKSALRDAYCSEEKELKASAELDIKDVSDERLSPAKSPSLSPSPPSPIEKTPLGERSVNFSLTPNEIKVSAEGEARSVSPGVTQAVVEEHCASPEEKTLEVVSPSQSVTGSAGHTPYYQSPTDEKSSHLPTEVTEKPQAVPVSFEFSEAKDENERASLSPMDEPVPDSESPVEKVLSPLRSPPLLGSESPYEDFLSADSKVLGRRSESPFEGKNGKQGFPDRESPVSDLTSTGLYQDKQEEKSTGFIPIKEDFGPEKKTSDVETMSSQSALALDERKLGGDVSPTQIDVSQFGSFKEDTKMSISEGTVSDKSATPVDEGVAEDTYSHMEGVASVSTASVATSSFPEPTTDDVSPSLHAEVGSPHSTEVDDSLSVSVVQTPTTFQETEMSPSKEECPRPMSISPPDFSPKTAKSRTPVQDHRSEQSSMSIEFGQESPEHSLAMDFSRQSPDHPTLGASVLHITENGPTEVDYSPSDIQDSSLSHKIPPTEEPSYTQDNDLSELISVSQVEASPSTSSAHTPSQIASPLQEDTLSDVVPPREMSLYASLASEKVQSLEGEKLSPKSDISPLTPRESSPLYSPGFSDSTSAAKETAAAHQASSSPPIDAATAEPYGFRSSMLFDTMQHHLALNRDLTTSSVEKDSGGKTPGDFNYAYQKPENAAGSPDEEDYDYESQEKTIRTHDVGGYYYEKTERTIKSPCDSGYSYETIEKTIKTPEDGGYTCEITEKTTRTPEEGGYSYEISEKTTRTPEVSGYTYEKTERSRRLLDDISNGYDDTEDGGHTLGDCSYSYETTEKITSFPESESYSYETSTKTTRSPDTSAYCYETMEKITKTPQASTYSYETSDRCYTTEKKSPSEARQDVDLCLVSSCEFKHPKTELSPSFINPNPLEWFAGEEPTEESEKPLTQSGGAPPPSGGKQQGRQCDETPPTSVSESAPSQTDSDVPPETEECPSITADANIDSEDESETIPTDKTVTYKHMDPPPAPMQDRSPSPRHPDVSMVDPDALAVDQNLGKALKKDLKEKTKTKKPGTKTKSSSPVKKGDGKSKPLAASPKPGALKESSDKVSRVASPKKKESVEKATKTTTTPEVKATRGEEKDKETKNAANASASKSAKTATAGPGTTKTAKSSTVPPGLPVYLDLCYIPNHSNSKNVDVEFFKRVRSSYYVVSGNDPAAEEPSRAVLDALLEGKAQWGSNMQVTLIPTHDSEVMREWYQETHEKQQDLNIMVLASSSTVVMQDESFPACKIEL
UniProt P27784: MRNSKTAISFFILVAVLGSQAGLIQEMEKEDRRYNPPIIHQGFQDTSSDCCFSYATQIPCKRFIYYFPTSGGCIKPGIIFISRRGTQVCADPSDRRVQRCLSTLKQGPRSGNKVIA
UniProt P17182, whole entry: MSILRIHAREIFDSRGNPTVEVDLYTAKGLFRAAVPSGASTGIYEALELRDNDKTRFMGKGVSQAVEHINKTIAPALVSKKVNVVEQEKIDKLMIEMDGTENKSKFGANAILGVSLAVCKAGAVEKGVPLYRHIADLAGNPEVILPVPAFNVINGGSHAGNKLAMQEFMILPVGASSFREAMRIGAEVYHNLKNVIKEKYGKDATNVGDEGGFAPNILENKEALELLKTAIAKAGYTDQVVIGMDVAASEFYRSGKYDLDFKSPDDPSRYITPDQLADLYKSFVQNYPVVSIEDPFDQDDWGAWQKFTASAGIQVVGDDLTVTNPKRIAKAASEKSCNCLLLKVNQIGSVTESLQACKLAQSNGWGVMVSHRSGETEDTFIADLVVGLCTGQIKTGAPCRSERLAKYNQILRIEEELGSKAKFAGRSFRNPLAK
UniProt P23950: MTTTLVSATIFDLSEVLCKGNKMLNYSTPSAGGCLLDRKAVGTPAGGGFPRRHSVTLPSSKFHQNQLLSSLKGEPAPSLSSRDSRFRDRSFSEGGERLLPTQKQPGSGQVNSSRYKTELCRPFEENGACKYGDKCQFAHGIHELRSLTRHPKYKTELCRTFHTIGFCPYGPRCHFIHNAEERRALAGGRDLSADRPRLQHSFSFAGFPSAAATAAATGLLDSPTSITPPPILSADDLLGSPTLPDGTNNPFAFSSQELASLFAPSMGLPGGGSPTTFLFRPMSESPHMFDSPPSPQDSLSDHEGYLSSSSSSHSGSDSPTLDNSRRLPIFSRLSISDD
UniProt P22907: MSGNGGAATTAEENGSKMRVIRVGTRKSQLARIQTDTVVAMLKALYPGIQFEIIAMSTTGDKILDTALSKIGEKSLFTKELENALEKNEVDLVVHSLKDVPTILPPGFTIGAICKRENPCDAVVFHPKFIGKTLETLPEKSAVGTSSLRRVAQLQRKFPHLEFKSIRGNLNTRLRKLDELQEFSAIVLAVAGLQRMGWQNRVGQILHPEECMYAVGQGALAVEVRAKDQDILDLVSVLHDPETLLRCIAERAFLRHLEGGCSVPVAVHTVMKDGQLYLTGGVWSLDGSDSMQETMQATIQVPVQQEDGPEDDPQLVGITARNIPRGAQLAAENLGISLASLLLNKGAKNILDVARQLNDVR

Compound: CN[C@@H]1C[C@H]2O[C@@](C)([C@@H]1OC)n1c3ccccc3c3c4c(c5c6ccccc6n2c5c31)C(=O)NC4 [staurosporine]
Assay: log2 fold change of pooled soluble protein (PISA), ligand vs vehicle (log2 ratio); higher = more thermally stabilized
Settings: ligand concentration: 20 uM; assay format: PISA pool 52.9/55.5/58.6 C

Target | log2 fold change of pooled soluble protein
UniProt P06837 | 0.0563
UniProt P01901 | -0.026
UniProt P05063 | 0.156
UniProt P11276 | -0.0406
UniProt P11859 | -0.0928
UniProt P28230 | 0.0129
UniProt P20152 | -0.0523
UniProt P21981 | -0.121
UniProt P17047 | -0.0253
UniProt P21440 | 0.0917
UniProt P08226 | -0.0349
UniProt P08249 | -0.165
UniProt P12265 | -0.172
UniProt P23589 | -0.106
UniProt P17426 | 0.07
UniProt P15535 | -0.0242
UniProt P27786 | 0.246
UniProt P06745 | -0.0343
UniProt P23492 | -0.0499

Reformatted as comma-separated lines: entries from further up.
Target,log2 fold change of pooled soluble protein
UniProt P21440,0.0917
UniProt P08226,-0.0349
UniProt P08249,-0.165
UniProt P12265,-0.172
UniProt P23589,-0.106
UniProt P17426,0.07
UniProt P15535,-0.0242
UniProt P27786,0.246
UniProt P06745,-0.0343
UniProt P23492,-0.0499

Remaining list, next part:

Target | log2 fold change of pooled soluble protein
UniProt P04919 | 0.0396
UniProt P04441 | 0.0456
UniProt P17156 | -0.64
UniProt P16301 | 0.0901
UniProt P26041 | 0.00136
UniProt P17742 | -0.104
UniProt P14873 | -0.36
UniProt P17665 | 0.0775
UniProt P27784 | 0.159
UniProt P17095 | 0.0713
UniProt P17182 | -0.0921
UniProt P23950 | 0.015
UniProt P20060 | 0.0472
UniProt P0C7L0 | -0.0861
UniProt P22907 | -0.243
UniProt P27612 | 0.0833
UniProt P24721 | -0.0433
UniProt P19137 | -0.104
